# Percent effect of library compounds

Source: ChEMBL document CHEMBL3988442, “University of Dundee, Small-Polar-MMV Screening Library” (2021).

Values are the deposited “Percent Effect”, in %.
How 0% and 100% were set is not recorded. Most values in the screen are low, and negative values occur.
Compounds were drawn at random from those tested, without regard to their results.

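Assay of Toxoplasma gondii numbers, read through their beta-galactosidase reporter with a colour substrate. Compounds at 50 µM. The record gives no direction; the compounds picked for IC50 retests had high values, so higher reads as fewer parasites. Of about 18,000 compounds tested this way, about 170 (0.94%) reached 50% or more in at least one test.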

| # | Compound | Percent Effect |
|---|---|---|
| 1 | `N[C@@H]1CC[C@@H](NS(=O)(=O)N2CCc3ccccc3C2)C1` | -15.21% |
| 2 | `FC(F)(F)COCCNCCn1cccn1` | -7.539% |
| 3 | `COCCN(C(=O)NC1CCS(=O)(=O)C1)C1CC1` (stereo not given) | -1.266% |
| 4 | `CC1CS(=O)(=O)CCN1C(=O)CCCSC(C)(C)C` (stereo not given) | -5.04% |
| 5 | `COc1ccc(NC(=O)NCCCN2CCCC2)cc1` | 10.25% |
| 6 | `NS(=O)(=O)c1ccc2c(c1)C(=O)CCO2` | -0.0541% |
| 7 | `NCCN1C(=O)COc2ccccc21` | 3.054% |
| 8 | `NCc1cccc(OCC(F)(F)F)n1` | -3.108% |
| 9 | `CCN(CCCN1CCCC1)C(=O)c1cc[nH]n1` | -7.801% |
| 10 | `COC(=O)Nc1cc(OC)c(OC)cc1C(=O)OC` | -11.86% |
| 11 | `COc1cccc(C(=O)NC2CCNCC2)c1` | 2.816% |
| 12 | `Cc1cc(C)c(C(=O)N2CCC(O)C2)c(=O)[nH]1` (stereo not given) | 12.97% |
| 13 | `CN(C)C(=O)c1cn(C)nc1C(F)(F)F` | 14.61% |
| 14 | `CCN(CC)C(=O)C1CCNCC1` | 12.26% |
| 15 | `CC(N)(C1CC1)C(F)(F)F` (stereo not given) | -6.326% |
| 16 | `COC(=O)N(C)CC(=O)NCc1ccccc1` | -14.08% |
| 17 | `CC(=O)c1cc(Br)cc(F)c1OCC(N)=O` | 14.65% |
| 18 | `CS(=O)(=O)NCC(=O)N[C@@H]1COCC[C@@H]1OCCO` | -7.245% |
| 19 | `COc1ccc(NC(=O)N2CCC[C@@H]2CO)cc1` | -11.9% |
| 20 | `CC(=O)c1ccncn1` | 41.67% |
| 21 | `CCNC(=O)CNc1nc(-c2ccccc2)cs1` | -8.696% |
| 22 | `O=C1c2ccc(F)cc2C(=O)N1c1ccccc1F` | -4.046% |
| 23 | `COC(=O)C1CCN(C(=O)C2CCCO2)CC1` (stereo not given) | -8.272% |
| 24 | `CC(C)(C)CC(O)CNC(=O)c1ccc[nH]1` (stereo not given) | 24.67% |
| 25 | `Cc1[nH][nH]c(=O)c1CCN` | -11.14% |
| 26 | `Cc1cnc(CO)cn1` | -8.836% |
| 27 | `NCC(=O)N1CCN(Cc2ccccc2)CC1` | -12.27% |
| 28 | `Cc1nnc(CN2CC[C@@]3(O)CCCC[C@H]3C2)o1` | 26.28% |
| 29 | `Cc1ccccc1C(C)NC(=O)c1ccc(O)nc1` (stereo not given) | -0.6979% |
| 30 | `COC(=O)c1ccoc1COc1ccc(C)cn1` | 4.388% |
| 31 | `CN1C(=O)C[C@H](CN)[C@H]1c1ccccc1` | -2.173% |
| 32 | `Cc1noc(N)c1Cl` | -8.103% |
| 33 | `CNCC(=O)NCc1cnn(Cc2ccccc2)c1` | -3.579% |
| 34 | `O=c1c(Br)cncn1CC(F)(F)F` | -8.896% |
| 35 | `Cn1cnc(S(=O)(=O)NC2(CN)CCCC2)c1` | -7.534% |
| 36 | `CC1(C)COCCN1C(=O)c1cccc(C(N)=O)c1` | 1.473% |
| 37 | `CCN(CC)C(=O)N1CCN(c2nccn2C)CC1` | 13.33% |
| 38 | `C1CC(CNC2CC2)CO1` (stereo not given) | 19.13% |
| 39 | `CCN1CN=C(NS(=O)(=O)c2ccc(C)cc2)NC1` | -65% |
| 40 | `CN(CC(=O)NCC1CC1)C1(C(N)=O)CCCC1` | -10.47% |
| 41 | `Cc1nc(CN)no1` | -3.121% |
| 42 | `COCCC1(C(=O)N(C)CC2CCCCO2)CCC1` (stereo not given) | 25.6% |
| 43 | `Cc1cc(NC(=O)c2ccc(F)c(C)c2)nc(=O)[nH]1` | 4.617% |
| 44 | `C=Cc1ccc(OC)nc1` | -12.97% |
| 45 | `CC1CCCCN1S(=O)(=O)N1CCNCC1` (stereo not given) | -8.878% |
| 46 | `CCNC(=O)c1ccc(CNS(=O)(=O)N(C)C)cc1` | -20.73% |
| 47 | `NCC(=O)Nc1ccccc1` | 0.1294% |
| 48 | `Cc1noc(C)c1NC(=O)NCCCc1csc(N)n1` | 20.28% |
| 49 | `CN(Cc1ccccc1)C1(CO)CCC1` | 10.3% |
| 50 | `Cn1cc(NC(=O)c2cc(Cl)cn2C)cn1` | -20.16% |
| 51 | `CNCCCNC(=O)c1ccc2c(c1)CCC2` | -3.93% |
| 52 | `CNS(=O)(=O)c1cccc(C(=O)Nc2cccnc2)c1` | -1.701% |
| 53 | `CCN(Cc1ccc(CO)o1)CC1CCCO1` (stereo not given) | -5.085% |
| 54 | `Cn1nccc1CNS(=O)(=O)c1nccs1` | -3.44% |
| 55 | `N#Cc1cccc(NCC(=O)NCc2ccco2)c1` | -13.55% |
| 56 | `NC(=O)CCN1CCCC(CO)(CC2CC2)C1` (stereo not given) | -3.649% |
| 57 | `CC(C)N1CCN(c2ccc3nnnn3n2)CC1` | -4.114% |
| 58 | `CC(C)(O)CN1CCN(Cc2ccc(N)nc2)CC1` | -4.707% |
| 59 | `CCC=C(C)C(=O)Nc1ccn(CCS(C)(=O)=O)n1` | -5.385% |
| 60 | `OCc1cc(F)cc(N2CCOCC2)c1` | -9.423% |
| 61 | `CCCOc1ccc(CN2CCOC(CN)C2)cc1` (stereo not given) | 2.592% |
| 62 | `O=C(NCCSC(F)(F)F)Nc1cccc2[nH]nnc12` | 1.645% |
| 63 | `CC(=O)NC(CC(=O)Nc1ccccn1)c1cccs1` (stereo not given) | -0.1012% |
| 64 | `CC(=O)Nc1ccc(S(=O)(=O)N2CCC(N)CC2)cc1` | 49.01% |
| 65 | `CS(=O)(=O)CCN1CCC(Oc2ccc(F)cc2)CC1` | 7.717% |
| 66 | `O=S1(=O)CCNC(C2CCC2)C1` (stereo not given) | -5.998% |

For reference, 6 entries once more:

Compound,Percent Effect
CCNC(=O)c1ccc(CNS(=O)(=O)N(C)C)cc1,-20.73%
Cc1cc(C)c(C(=O)N2CCC(O)C2)c(=O)[nH]1 (stereo not given),12.97%
CNCC(=O)NCc1cnn(Cc2ccccc2)c1,-3.579%
COC(=O)c1ccoc1COc1ccc(C)cn1,4.388%
COC(=O)C1CCN(C(=O)C2CCCO2)CC1 (stereo not given),-8.272%
NC(=O)CCN1CCCC(CO)(CC2CC2)C1 (stereo not given),-3.649%